Source: patent publication US20030207791A1, “Materials and methods relating to the treatment of leukaemias” (priority 2000, published 2003)
These are yes or no findings as the source states them, for the method shown. For part of these data: Binding seen in cells or lysates may run through a third protein. Some binding calls cover weakened binding; strength is not graded here. For part of these data: Sequences can lack the tags named with a protein. Blank lines part the entries; values can stand above or below the binder they belong to.

Experiments:
PML-RAR = PML-RAR (UniProt P29590); test: mobility shift on agarose gels, Xenopus oocyte extracts, RARE probe
CC-RAR (human) = CC-RAR (human) (UniProt P10276); test: gel filtration of nuclear extracts, Western blot with anti-RAR
GST-NCoR (1782-2453) = molecular target: T1, GST-NCoR (1782-2453) (UniProt Q60974); test: GST pull-down, in vitro translated 35S-labelled protein on GST-NCoR agarose beads
T1 sequence (looked up): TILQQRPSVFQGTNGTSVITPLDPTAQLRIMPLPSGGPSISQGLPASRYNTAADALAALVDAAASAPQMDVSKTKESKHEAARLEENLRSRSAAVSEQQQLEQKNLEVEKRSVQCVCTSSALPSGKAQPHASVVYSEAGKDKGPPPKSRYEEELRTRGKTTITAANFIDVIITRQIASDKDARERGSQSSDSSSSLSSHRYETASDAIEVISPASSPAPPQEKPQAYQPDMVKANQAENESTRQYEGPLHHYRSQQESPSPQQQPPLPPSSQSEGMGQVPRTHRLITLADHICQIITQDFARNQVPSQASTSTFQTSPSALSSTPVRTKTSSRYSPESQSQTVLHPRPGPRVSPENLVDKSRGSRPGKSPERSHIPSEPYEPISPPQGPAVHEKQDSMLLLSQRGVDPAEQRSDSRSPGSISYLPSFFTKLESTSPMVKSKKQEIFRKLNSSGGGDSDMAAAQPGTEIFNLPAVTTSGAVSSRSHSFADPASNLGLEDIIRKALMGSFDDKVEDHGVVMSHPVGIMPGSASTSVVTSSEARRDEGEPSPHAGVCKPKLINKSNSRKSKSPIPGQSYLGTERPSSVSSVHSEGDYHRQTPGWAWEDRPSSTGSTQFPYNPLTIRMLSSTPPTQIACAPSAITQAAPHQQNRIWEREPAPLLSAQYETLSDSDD

- binding (PML-RAR): binds
B1: GST-NCoR (1782-2453) (protein, UniProt Q60974 1782-2453, looked up, not shown: a dimerising Fc or GST)
chain: T1 sequence (looked up)

- binding (CC-RAR (human)): binds
- binding (GST-NCoR (1782-2453)): binds
B2: CC-RAR (protein)
chain: SELKCDISAEIQQRQEELDAMTQALQALQEQDSAEGAVHAQMHAAVGQLGRARAETEELIRERVRQVVAHVRAQERELLEAVDARYQRDYEEMASRLGRLDAVLQRIRTGSALVQRMKCYASDQEVLDMHGFLRQALCRLRMASNSSSCPTPGGGHLNGYPVPPYAFFFPPMLGGLSPPGALTTLQHQLPVSGYSTPSPATIETQSSSSEEIVPSPPSPPPLPRIYKPCFVCQDKSSGYHYGVSACEGCKGFFRRSIQKNMVYTCHRDKNCIINKVTRNRCQYCRLQKCFEVGMSKESVRNDRNKKKKEVPKPECSESYTLTPEVGELIEKVRKAHQETFPALCQLGKYTTNNSSEQRVSLDIDLWDKFSELSTKCIIKTVEFAKQLPGFTTLTIADQITLLKAACLDILILRICTRYTPEQDTMTFSDGLTLNRTQMHNAGFGPLTDLVFAFANQLLPLEMDDAETGLLSAICLICGDRQDLEQPDRVDMLQEPLLEALKVYVRKRRPSRPHMFPKMLMKITDLRSISAKGAERVITLKMEIPGSMPPLIQEMLENSEGLDTLSGQPGGGGRDGGGLAPPPGSCSPSLSPSSNRSSPATHSP
